Results on 5 sequences are retold here after PMC11404569.

For part of these data: No signal at the amounts used counts as a negative. At least one verdict was read from the data and is not stated in words by the source. Protein sequences can lack the tags named with them. Weaker means in comparison with the reference protein, sequence or condition of that experiment. For at least one entry, the source does not settle the construct or the ends of the probe.

Experiment in all cases: EMSA
(In EMSA bound probe runs differently from free probe, usually more slowly.)

In series [1] the target is T1, ECT2-108 (Arabidopsis thaliana) (UniProt Q9LJE5).
T1 sequence (looked up): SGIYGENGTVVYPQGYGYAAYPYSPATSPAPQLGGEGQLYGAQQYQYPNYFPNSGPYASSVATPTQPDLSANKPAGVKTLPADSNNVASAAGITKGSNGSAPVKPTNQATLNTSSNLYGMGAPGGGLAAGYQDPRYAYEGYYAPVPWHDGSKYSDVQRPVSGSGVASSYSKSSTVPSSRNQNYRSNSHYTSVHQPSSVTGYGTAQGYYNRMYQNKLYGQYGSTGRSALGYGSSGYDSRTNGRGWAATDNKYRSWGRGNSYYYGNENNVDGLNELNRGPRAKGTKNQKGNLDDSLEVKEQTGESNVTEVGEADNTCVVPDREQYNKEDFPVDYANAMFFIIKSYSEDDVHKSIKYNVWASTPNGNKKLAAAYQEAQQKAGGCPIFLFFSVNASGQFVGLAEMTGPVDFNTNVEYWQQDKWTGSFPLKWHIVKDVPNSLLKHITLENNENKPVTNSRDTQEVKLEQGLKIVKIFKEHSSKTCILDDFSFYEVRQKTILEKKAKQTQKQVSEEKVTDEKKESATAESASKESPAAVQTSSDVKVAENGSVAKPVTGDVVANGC
Particulars: EMSA: 10 nM FAM-RNA, binding buffer 10 mM HEPES pH 8.0, 50 mM KCl, 1 mM EDTA, 0.05% Triton X-100, 5% glycerol, 10 µg/mL salmon DNA, 1 mM DTT, 40 U/mL RNasin, recombinant protein, residues 108-667, protein details: N-terminal His-SUMO, label: 5' FAM.

Series [2] deals with T2, ECT2-204 (Arabidopsis thaliana) (UniProt Q9LJE5).
T2 sequence (looked up): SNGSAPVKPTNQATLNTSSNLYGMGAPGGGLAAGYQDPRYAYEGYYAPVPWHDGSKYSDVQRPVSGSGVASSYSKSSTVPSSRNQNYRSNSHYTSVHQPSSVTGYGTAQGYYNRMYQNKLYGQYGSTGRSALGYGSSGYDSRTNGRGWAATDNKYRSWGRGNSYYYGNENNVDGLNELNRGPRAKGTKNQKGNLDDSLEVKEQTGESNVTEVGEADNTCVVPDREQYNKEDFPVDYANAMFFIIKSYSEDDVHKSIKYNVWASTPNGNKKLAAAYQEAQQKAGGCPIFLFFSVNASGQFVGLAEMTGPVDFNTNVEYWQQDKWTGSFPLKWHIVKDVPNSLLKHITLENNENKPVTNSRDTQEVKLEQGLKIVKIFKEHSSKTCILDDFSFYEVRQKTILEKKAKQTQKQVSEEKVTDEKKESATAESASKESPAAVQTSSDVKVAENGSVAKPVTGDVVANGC
Particulars: EMSA: 10 nM FAM-RNA, binding buffer 10 mM HEPES pH 8.0, 50 mM KCl, 1 mM EDTA, 0.05% Triton X-100, 5% glycerol, 10 µg/mL salmon DNA, 1 mM DTT, 40 U/mL RNasin, recombinant protein, residues 204-667, protein details: N-terminal His-SUMO, label: 5' FAM.

Series [3] concerns the target T3, ECT2-376 (Arabidopsis thaliana) (UniProt Q9LJE5).
T3 sequence (looked up): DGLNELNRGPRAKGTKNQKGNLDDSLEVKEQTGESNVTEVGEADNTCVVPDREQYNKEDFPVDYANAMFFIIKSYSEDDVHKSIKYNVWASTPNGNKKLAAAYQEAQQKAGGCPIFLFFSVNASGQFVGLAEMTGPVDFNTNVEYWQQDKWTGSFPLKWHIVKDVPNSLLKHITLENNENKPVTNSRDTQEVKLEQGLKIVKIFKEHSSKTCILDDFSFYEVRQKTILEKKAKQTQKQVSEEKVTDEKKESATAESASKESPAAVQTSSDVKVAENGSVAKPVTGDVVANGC
Particulars: free probe decreases, no gel-stable complex, EMSA: 10 nM FAM-RNA, binding buffer 10 mM HEPES pH 8.0, 50 mM KCl, 1 mM EDTA, 0.05% Triton X-100, 5% glycerol, 10 µg/mL salmon DNA, 1 mM DTT, 40 U/mL RNasin, recombinant protein, residues 376-667, protein details: N-terminal His-SUMO, label: 5' FAM.

The target of series [4] is T4, ECT2-424 (His-SUMO) (Arabidopsis thaliana) (UniProt Q9LJE5).
T4 sequence (looked up): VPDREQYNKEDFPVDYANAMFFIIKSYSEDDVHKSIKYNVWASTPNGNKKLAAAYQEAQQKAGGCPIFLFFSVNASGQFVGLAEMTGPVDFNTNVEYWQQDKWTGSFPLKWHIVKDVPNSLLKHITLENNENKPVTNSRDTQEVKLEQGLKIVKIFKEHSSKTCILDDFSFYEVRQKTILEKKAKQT
Particulars: no gel-stable complex, EMSA: 10 nM FAM-RNA, binding buffer 10 mM HEPES pH 8.0, 50 mM KCl, 1 mM EDTA, 0.05% Triton X-100, 5% glycerol, 10 µg/mL salmon DNA, 1 mM DTT, 40 U/mL RNasin, recombinant protein, residues 424-610, protein details: N-terminal His-SUMO, label: 5' FAM.

The target of series [5] is T5, ECT2-303 (Arabidopsis thaliana) (UniProt Q9LJE5).
T5 sequence (looked up): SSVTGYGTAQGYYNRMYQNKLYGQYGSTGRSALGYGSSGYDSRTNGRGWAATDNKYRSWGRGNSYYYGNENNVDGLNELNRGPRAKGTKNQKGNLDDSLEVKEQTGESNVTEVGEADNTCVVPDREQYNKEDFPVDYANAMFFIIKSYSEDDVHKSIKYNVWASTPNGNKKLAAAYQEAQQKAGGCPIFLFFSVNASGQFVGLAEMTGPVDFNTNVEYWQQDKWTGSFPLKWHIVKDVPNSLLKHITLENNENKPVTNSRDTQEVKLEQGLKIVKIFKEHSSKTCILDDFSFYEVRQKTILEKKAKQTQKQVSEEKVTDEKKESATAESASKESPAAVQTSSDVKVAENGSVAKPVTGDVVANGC
Particulars: no gel-stable complex, free probe decreases; m6A at position 6; thiol-protected 3' bases (*C*U); EMSA: 10 nM FAM-RNA; binding buffer 10 mM HEPES pH 8.0, 50 mM KCl, 1 mM EDTA, 0.05% Triton X-100, 5% glycerol, 10 µg/mL salmon DNA, 1 mM DTT, 40 U/mL RNasin; recombinant protein; residues 303-667; protein details: N-terminal His-SUMO; label: 5' FAM.

Where [6] appears, read: up to 500 nM, thiol-protected 3' bases (*G*U).
The mark [7] stands for this setting: stable complex, low affinity, thiol-protected 3' bases (*G*A).
Setting [8] is: smear, m6A at position 25, thiol-protected 3' bases (*G*U).
Where [9] appears, read: no gel-stable complex, free probe decreases, m6A at position 6, thiol-protected 3' bases (*C*U).

Turning to “AUGUGUCUUUCAUGUACUAAAAGGACUGCUCUUGUGUCUUGU [Probe IV (A)]”, the binding result in series [1] (setting [6]) and in series [2] (setting [6]) was “no binding” throughout.
In the case of “AAGGGCCGAACAACAGCAAAAAGGACUGCAAAAGGGGCAAGA [Probe III (A)]”, the binding result in series [1] (setting [7]) and in series [2] (setting [7]) was “binds more weakly” throughout.
Take “AUGGGCCGUUCAUCUGCUAAAAGGACUGCUUUUGGGGCUUGU [Probe I m6A]”: the binding result in series [3] (setting [8]) and in series [4] (setting [8]) was “binds more weakly” throughout.
Regarding AAAGGACUGCU [Probe II m6A], the binding result is given as “binds more weakly” in series [1] (setting [9]); “binds more weakly” in series [2] (setting [9]); “binds more weakly” in series [5]; “binds more weakly” in series [3] (m6A at position 6, thiol-protected 3' bases (*C*U)); “binds more weakly” in series [4] (free probe decreases, m6A at position 6, thiol-protected 3' bases (*C*U)).
Consider “AUGGGCCGUUCAUCUGCUAAAAGGACUGCUUUUGGGGCUUGU [Probe I (A)]”, for which, in series [2] (setting [6]), the binding result is on record as “no binding”.
